Among the data in article PMC9532426, “Autophagy induction promoted by m6A reader YTHDF3 through translation upregulation of FOXO3 mRNA” are binding values, retold here.

Protein sequences, listed by entry. Tags and fused reporters are not part of them.
UniProt Q8K4L0: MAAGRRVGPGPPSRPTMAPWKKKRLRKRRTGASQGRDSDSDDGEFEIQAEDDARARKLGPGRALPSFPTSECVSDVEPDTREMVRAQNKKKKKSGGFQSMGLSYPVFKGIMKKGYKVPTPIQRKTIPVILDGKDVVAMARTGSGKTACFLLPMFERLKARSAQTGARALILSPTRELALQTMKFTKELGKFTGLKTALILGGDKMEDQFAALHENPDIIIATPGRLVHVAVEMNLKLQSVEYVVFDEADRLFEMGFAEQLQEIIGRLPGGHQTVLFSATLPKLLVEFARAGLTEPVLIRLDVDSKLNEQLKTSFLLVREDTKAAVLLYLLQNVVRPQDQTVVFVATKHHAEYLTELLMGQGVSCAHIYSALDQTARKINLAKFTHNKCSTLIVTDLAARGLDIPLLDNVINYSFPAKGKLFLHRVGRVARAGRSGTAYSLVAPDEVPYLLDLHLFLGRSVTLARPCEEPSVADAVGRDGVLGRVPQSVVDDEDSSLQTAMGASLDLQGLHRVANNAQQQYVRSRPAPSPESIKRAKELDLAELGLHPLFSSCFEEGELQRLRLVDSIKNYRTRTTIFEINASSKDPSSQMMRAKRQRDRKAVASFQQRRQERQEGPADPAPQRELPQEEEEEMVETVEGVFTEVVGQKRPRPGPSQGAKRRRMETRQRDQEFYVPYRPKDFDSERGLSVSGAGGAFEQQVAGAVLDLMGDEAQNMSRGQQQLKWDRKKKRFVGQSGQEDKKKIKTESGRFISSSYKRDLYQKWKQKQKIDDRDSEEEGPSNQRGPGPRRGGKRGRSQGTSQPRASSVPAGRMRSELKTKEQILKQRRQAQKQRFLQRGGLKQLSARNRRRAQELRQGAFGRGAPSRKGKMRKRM
UniProt P53996: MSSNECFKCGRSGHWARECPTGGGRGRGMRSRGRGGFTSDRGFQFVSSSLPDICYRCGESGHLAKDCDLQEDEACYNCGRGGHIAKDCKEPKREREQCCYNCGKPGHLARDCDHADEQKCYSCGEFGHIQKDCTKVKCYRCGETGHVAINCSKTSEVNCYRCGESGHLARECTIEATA
UniProt Q8BQ46: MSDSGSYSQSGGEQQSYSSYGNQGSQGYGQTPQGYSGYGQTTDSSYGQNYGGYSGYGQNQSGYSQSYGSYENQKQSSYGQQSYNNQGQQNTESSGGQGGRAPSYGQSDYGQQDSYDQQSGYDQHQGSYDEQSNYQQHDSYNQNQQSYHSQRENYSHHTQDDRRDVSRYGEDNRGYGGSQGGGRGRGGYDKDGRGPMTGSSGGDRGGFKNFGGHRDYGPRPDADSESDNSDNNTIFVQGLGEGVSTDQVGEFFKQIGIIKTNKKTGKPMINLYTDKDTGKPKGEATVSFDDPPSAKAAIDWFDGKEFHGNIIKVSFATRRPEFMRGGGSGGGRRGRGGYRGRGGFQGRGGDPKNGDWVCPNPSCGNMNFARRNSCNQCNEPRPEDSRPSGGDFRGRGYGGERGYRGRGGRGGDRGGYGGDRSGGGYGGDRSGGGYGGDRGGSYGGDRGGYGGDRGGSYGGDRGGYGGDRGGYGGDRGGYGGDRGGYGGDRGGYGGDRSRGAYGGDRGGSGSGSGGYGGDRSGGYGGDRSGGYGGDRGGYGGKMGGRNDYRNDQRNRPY
UniProt P23116: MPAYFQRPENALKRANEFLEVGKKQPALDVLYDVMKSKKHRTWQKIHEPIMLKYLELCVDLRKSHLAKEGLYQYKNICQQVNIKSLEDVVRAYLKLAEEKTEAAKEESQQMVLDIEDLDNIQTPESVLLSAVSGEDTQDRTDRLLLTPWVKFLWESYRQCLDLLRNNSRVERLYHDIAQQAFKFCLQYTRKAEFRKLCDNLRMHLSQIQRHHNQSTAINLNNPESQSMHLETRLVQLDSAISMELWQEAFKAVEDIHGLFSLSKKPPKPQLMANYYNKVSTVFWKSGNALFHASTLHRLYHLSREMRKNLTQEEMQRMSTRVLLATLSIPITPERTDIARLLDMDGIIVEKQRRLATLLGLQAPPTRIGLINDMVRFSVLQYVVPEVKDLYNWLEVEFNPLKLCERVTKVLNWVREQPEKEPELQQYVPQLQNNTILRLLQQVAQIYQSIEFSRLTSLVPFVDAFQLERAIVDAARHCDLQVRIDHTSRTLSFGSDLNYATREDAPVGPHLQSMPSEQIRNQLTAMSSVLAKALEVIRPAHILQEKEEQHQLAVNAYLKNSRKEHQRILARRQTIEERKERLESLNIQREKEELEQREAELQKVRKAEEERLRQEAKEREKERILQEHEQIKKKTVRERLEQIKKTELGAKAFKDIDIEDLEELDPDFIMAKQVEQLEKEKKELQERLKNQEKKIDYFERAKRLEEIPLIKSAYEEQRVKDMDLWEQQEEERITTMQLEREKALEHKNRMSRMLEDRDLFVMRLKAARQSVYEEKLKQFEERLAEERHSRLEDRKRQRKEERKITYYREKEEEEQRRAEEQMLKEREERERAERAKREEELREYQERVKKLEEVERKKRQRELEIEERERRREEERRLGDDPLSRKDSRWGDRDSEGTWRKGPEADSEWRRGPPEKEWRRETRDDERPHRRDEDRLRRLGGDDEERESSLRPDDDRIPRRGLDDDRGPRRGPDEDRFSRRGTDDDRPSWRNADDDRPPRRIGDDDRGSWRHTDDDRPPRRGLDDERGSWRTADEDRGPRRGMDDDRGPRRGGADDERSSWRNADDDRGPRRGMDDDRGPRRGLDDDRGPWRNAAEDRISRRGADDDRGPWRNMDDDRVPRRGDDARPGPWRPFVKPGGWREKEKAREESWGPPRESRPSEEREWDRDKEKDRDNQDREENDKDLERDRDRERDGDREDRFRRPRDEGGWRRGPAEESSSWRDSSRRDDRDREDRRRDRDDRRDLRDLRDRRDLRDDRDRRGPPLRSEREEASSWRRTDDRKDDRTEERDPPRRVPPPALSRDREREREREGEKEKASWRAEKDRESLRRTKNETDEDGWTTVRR
UniProt O70194: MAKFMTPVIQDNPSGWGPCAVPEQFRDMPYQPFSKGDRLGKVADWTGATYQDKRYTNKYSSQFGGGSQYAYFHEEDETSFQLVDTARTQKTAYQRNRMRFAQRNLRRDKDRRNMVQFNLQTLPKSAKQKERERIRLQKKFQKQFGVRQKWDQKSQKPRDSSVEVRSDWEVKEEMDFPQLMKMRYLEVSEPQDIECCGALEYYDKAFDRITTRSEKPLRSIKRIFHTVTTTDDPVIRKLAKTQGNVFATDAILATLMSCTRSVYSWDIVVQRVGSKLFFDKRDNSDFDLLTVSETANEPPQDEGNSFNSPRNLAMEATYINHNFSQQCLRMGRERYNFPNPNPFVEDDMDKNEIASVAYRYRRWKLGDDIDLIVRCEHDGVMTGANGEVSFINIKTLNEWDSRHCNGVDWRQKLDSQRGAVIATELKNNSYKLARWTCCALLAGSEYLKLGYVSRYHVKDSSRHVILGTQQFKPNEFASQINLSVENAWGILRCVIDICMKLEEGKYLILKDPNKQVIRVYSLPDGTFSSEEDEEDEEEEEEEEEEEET
UniProt Q8BGD9: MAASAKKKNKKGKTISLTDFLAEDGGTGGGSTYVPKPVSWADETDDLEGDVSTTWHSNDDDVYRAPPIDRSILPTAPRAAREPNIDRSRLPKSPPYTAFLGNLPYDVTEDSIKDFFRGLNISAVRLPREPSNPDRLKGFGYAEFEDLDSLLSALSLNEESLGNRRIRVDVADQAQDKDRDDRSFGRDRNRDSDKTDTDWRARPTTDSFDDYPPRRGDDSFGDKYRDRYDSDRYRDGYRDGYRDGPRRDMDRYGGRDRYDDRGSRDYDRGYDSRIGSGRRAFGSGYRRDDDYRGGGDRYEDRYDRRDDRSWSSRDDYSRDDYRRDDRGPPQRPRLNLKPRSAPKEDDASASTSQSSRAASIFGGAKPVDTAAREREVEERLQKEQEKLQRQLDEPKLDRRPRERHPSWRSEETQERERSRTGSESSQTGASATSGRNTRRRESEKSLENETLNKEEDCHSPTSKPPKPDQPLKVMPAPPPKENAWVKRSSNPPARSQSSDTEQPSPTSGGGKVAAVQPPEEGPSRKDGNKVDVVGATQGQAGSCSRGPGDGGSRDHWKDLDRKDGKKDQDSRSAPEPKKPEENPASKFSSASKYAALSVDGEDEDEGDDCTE
UniProt P26369: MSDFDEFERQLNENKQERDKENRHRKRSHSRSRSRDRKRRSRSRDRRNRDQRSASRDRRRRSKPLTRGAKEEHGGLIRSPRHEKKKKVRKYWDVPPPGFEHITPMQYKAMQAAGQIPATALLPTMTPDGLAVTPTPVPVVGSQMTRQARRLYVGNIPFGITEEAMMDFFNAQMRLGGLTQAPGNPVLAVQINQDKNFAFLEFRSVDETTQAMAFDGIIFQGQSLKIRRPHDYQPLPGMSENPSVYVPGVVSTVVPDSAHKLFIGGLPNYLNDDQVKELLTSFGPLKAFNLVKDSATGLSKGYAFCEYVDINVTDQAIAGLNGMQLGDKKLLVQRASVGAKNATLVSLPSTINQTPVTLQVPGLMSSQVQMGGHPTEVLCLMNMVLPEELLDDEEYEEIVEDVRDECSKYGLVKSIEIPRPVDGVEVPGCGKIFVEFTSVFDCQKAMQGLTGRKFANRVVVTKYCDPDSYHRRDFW
UniProt Q5SF07: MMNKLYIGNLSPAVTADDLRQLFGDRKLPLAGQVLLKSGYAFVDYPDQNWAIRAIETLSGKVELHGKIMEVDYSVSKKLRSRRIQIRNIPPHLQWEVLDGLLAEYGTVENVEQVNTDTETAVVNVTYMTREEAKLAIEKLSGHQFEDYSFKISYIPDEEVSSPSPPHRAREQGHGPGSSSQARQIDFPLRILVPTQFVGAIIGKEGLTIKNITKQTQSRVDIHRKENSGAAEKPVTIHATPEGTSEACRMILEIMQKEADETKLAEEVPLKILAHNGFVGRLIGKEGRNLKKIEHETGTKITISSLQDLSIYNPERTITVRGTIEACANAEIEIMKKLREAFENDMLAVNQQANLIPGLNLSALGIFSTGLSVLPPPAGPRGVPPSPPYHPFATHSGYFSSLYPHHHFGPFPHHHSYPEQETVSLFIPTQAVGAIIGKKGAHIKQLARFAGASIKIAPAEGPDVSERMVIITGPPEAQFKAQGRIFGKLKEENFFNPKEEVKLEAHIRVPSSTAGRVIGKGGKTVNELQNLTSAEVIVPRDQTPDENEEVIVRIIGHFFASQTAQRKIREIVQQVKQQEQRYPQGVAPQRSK
UniProt Q9Z204: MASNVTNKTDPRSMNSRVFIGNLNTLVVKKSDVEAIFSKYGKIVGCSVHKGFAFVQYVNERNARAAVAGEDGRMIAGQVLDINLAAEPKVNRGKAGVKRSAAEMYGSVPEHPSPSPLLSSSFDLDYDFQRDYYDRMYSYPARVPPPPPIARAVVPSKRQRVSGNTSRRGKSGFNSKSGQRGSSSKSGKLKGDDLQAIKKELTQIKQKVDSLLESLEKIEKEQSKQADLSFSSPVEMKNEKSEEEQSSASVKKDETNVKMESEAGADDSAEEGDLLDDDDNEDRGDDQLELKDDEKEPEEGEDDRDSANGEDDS
UniProt Q8VDM6: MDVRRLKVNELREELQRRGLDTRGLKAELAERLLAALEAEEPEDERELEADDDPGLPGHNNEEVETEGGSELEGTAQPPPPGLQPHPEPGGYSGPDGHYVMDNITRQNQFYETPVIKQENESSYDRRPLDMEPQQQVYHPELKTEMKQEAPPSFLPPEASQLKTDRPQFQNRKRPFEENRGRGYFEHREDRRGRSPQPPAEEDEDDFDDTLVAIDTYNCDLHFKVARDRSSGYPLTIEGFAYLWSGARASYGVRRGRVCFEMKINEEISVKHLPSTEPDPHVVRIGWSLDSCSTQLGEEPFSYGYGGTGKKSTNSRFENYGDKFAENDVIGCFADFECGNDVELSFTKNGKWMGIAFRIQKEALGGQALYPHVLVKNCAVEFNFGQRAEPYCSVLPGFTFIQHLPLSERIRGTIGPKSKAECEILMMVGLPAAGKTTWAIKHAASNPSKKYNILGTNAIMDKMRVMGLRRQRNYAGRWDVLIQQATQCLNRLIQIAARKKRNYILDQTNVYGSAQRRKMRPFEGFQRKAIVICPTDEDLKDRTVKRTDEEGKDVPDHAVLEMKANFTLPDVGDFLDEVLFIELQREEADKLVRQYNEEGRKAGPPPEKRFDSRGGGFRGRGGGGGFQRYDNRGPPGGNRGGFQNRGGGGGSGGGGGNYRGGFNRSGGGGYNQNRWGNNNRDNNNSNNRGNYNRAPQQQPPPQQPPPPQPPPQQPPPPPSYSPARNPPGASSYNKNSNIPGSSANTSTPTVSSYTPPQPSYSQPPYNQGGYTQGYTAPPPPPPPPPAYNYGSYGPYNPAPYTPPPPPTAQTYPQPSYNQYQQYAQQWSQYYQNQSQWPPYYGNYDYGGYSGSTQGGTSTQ

Experiment [1] deals with T1, YTHDF3 (mouse (endogenous in MEFs)) (UniProt Q8BYK6).
T1 sequence: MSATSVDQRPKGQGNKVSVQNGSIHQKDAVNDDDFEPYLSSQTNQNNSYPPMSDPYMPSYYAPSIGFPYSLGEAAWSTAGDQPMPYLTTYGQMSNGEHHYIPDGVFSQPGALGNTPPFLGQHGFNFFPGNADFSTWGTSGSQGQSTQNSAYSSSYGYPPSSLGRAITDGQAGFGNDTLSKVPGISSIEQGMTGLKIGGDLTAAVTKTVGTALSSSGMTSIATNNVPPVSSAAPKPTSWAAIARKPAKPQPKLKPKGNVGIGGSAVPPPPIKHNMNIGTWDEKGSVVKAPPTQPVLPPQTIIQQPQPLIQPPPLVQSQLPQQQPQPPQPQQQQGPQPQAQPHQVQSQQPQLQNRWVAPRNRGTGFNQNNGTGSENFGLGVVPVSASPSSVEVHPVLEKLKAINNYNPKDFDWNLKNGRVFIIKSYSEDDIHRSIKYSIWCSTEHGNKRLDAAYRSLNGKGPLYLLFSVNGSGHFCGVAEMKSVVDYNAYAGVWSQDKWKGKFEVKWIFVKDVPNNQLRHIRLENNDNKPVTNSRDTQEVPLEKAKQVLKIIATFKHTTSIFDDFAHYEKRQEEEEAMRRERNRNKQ
Nature of the experiment: affinity purification with mass spectrometry; anti-YTHDF3 antibody (sc-377119) crosslinked to Protein A/G Plus Agarose, MEF lysates under normal and nutrient-free conditions, overnight at 4 °C, LC-MS/MS; mouse IgG as control.

The target of experiment [2] is T1, YTHDF3 (mouse (endogenous in MEFs)). The description is as above. The source holds these as a separate data set.

Where two headings read alike, the source gives them in different places. Results are given in words; binding and its absence hold for the method and conditions named. Binding seen in cells or lysates may run through a third protein. A yes stands for co-enrichment or nearness to the bait. Other partners may have been found.

For the molecule DDX54 (from UniProt Q8K4L0 1-874), in experiment [1], the binding result is reported as “binds”.

In the case of CNBP (from UniProt P53996 1-178), in experiment [1], the binding result was “binds”.

TAF15 (from UniProt Q8BQ46 1-557): the binding entry in experiment [1] is on record as “binds”.

Regarding eIF3a (from UniProt P23116 1-1344), the binding entry in experiment [1] is “binds”.

In the case of IGF2BP1 (from UniProt O88477 1-577), the binding result in experiment [1] is listed as “binds”.

Regarding eIF3d (from UniProt O70194 1-548), the binding entry in experiment [1] is reported as “binds”.

As to eIF4B (from UniProt Q8BGD9 1-611), the binding entry in experiment [1] is recorded as “binds”.

Turning to U2AF2 (from UniProt P26369 1-475), the binding result in experiment [1] is “binds”.

Regarding IGF2BP2 (from UniProt Q5SF07 1-592), the binding result in experiment [1] is reported as “binds”.

With HNRNPC (from UniProt Q9Z204 1-313), in experiment [1], the binding entry is “binds”.

For the molecule HNRNPUL1 (from UniProt Q8VDM6 1-859), the binding result in experiment [1] is “binds”.

As to TARDBP (from UniProt Q921F2 1-414), the binding result in experiment [1] is “binds”.

B1: SRSF7 (protein, UniProt Q8BL97 1-267)
chain: MRSSARGRPLQAATAFFLSLFFFLRRFERGFWLWGGDSETKVYVGNLGTGAGKGELERAFSYYGPLRTVWIARNPPGFAFVEFEDPRDAEDAVRGLDGKVICGSRVRVELSTGMPRRSRFDRPPARRPFDPNDRCYECGEKGHYAYDCHRYSRRRRSRSRSRSHSRSRGRRYSRSRSRSRGRRSRSASPRRSRSVSLRRSRSASLRRSRSGSIIGSRYFQSRSRSRSRSRSISRPRSSRSKSRSPSPKRSRSPSGSPHRSASPERMD
Turning to B1, in experiment [2], the binding result is “binds”.

B2: RBM39 (protein, UniProt Q8VH51 1-530)
chain: MADDIDIEAMLEAPYKKDENKLNSANGHEERSKKRKKSKSRSRSHERKRSKSKERKRSRDRERKKSKSRERKRSRSKERRRSRSRSRDRRFRGRYRSPYSGPKFNSAIRGKIGLPHSIKLSRRRSRSKSPFRKDKSPVREPIDNLTPEERDARTVFCMQLAARIRPRDLEEFFSTVGKVRDVRMISDRNSRRSKGIAYVEFVDVSSVPLAIGLTGQRVLGVPIIVQASQAEKNRAAAMANNLQKGSAGPMRLYVGSLHFNITEDMLRGIFEPFGRIESIQLMMDSETGRSKGYGFITFSDSECAKKALEQLNGFELAGRPMKVGHVTERTDASSASSFLDSDELERTGIDLGTTGRLQLMARLAEGTGLQIPPAAQQALQMSGSLAFGAVAEFSFVIDLQTRLSQQTEASALAAAASVQPLATQCFQLSNMFNPQTEEEVGWDTEIKDDVIEECNKHGGVIHIYVDKNSAQGNVYVKCPSIAAAIAAVNALHGRWFAGKMITAAYVPLPTYHNLFPDSMTATQLLVPSRR
As for B2, the binding result in experiment [2] is given as “binds”.

B3: NOP58 (protein, UniProt Q6DFW4 1-536)
chain: MLVLFETSVGYAIFKVLNEKKLQEVDSLWKEFETPEKANKIVKLKHFEKFQDTAEALAAFTALMEGKINKQLKKVLKKIVKEAHEPLAVADAKLGGVIKEKLNLSCIHSPVVNELMRGIRSQMDGLIPGVEPREMAAMCLGLAHSLSRYRLKFSADKVDTMIVQAISLLDDLDKELNNYIMRCREWYGWHFPELGKIISDNLTYCKCLQKVGDRKNYASASLSEFLSEEVEAEVKAAAEISMGTEVSEEDICNILHLCTQVIEISEYRTQLYEYLQNRMMAIAPNVTVMVGELVGARLIAHAGSLLNLAKHAASTVQILGAEKALFRALKSRRDTPKYGLIYHASLVGQSSPKHKGKISRMLAAKTVLAIRYDAFGEDSSSAMGIENRAKLEARLRILEDRGIRKISGTGKALAKAEKYEHKSEVKTYDPSGDSTLPTCSKKRKIEEVDKEDEITEKKAKKAKIKIKAEVEEEMEEEEAEEEQVVEEEPTVKKKKKKDKKKHIKEEPLSEEEPCTSTAVPSPEKKKKKKKKKDAED
B3: the binding result in experiment [2] is on record as “binds”.

B4: ATXN2 (protein, UniProt O70305 1-1285)
chain: MRSSTAAVQRPAAGDPEPRRPAGWAARRSLPRTARRGGRGGAVAYPSAGPPPRGPGAPPRGPRSPPCASDCFGSNGHGASRPGSRRLLGVCGPPRPFVVVLLALAPAATPARACPPGVRASPPRSGVSSSARPAPGCPRPACEPVYGPLTMSLKPQPQPPAPATGRKPGGGLLSSPGAAPASAAVTSASVVPAPAAPVASSSAAAGGGRPGLGRGRNSSKGLPQPTISFDGIYANVRMVHILTSVVGSKCEVQVKNGGIYEGVFKTYSPKCDLVLDAAHEKSTESSSGPKREEIMESVLFKCSDFVVVQFKDTDSSYARRDAFTDSALSAKVNGEHKEKDLEPWDAGELTASEELELENDVSNGWDPNDMFRYNEENYGVVSTYDSSLSSYTVPLERDNSEEFLKREARANQLAEEIESSAQYKARVALENDDRSEEEKYTAVQRNCSDREGHGPNTRDNKYIPPGQRNREVLSWGSGRQSSPRMGQPGPGSMPSRAASHTSDFNPNAGSDQRVVNGGVPWPSPCPSHSSRPPSRYQSGPNSLPPRAATHTRPPSRPPSRPSRPPSHPSAHGSPAPVSTMPKRMSSEGPPRMSPKAQRHPRNHRVSAGRGSMSSGLEFVSHNPPSEAAAPPVARTSPAGGTWSSVVSGVPRLSPKTHRPRSPRQSSIGNSPSGPVLASPQAGIIPAEAVSMPVPAASPTPASPASNRALTPSIEAKDSRLQDQRQNSPAGSKENVKASETSPSFSKADNKGMSPVVSEHRKQIDDLKKFKNDFRLQPSSTSESMDQLLSKNREGEKSRDLIKDKTEASAKDSFIDSSSSSSNCTSGSSKTNSPSISPSMLSNAEHKRGPEVTSQGVQTSSPACKQEKDDREEKKDTTEQVRKSTLNPNAKEFNPRSFSQPKPSTTPTSPRPQAQPSPSMVGHQQPAPVYTQPVCFAPNMMYPVPVSPGVQPLYPIPMTPMPVNQAKTYRAGKVPNMPQQRQDQHHQSTMMHPASAAGPPIVATPPAYSTQYVAYSPQQFPNQPLVQHVPHYQSQHPHVYSPVIQGNARMMAPPAHAQPGLVSSSAAQFGAHEQTHAMYACPKLPYNKETSPSFYFAISTGSLAQQYAHPNAALHPHTPHPQPSATPTGQQQSQHGGSHPAPSPVQHHQHQAAQALHLASPQQQSAIYHAGLAPTPPSMTPASNTQSPQSSFPAAQQTVFTIHPSHVQPAYTTPPHMAHVPQAHVQSGMVPSHPTAHAPMMLMTTQPPGPKAALAQSALQPIPVSTTAHFPYMTHPSVQAHHQQQL
In the case of B4, the binding result in experiment [2] is on record as “binds”.

B5: FBL (protein, UniProt P35550 1-327)
chain: MKPGFSPRGGGFGGRGGFGDRGGRGGGRGGRGGFGGGRGGFGGGGRGRGGGGGGFRGRGGGGGRGGGFQSGGNRGRGGGRGGKRGNQSGKNVMVEPHRHEGVFICRGKEDALVTKNLVPGESVYGEKRVSISEGDDKIEYRAWNPFRSKLAAAILGGVDQIHIKPGAKVLYLGAASGTTVSHVSDIVGPDGLVYAVEFSHRSGRDLINLAKKRTNIIPVIEDARHPHKYRMLIAMVDVIFADVAQPDQTRIVALNAHTFLRNGGHFVISIKANCIDSTASAEAVFASEVKKMQQENMKPQEQLTLEPYERDHAVVVGVYRPPPKVKN
Regarding B5, the binding entry in experiment [2] is reported as “binds”.

B6: MBNL1 (protein, UniProt Q9JKP5 1-341)
chain: MAVSVTPIRDTKWLTLEVCREFQRGTCSRPDTECKFAHPSKSCQVENGRVIACFDSLKGRCSRENCKYLHPPPHLKTQLEINGRNNLIQQKNMAMLAQQMQLANAMMPGAPLQPVPMFSVAPSLATSASAAFNPYLGPVSPSLVPAEILPTAPMLVTGNPGVPVPAAAAAAAQKLMRTDRLEVCREYQRGNCNRGENDCRFAHPADSTMIDTNDNTVTVCMDYIKGRCSREKCKYFHPPAHLQAKIKAAQYQVNQAAAAQAAATAAAMGIPQAVLPPLPKRPALEKTNGATAVFNTGIFQYQQALANMQLQQHTAFLPPGSILCMTPATSVDTHNICRTSD
Turning to B6, the binding entry in experiment [2] is reported as “binds”.

B7: CSTF2T (protein, UniProt Q8C7E9 1-632)
chain: MSSLAVRDPAMDRSLRSVFVGNIPYEATEEQLKDIFSEVGSVVSFRLVYDRETGKPKGYGFCEYQDQETALSAMRNLNGREFSGRALRVDNAASEKNKEELKSLGPAAPIIDSPYGDPIDPEDAPESITRAVASLPPEQMFELMKQMKLCVQNSHQEARNMLLQNPQLAYALLQAQVVMRIMDPEIALKILHRKIHVTPLIPGKSQPVSGPGPGGPGPSGPGGPGPGPAPGLCPGPNVMLNQQNPPAPQPQHLPRRPVKDIPPLMQTSIQGGIPAPGPIPAAVPGPGPGSLTPGGAMQPQVGMPVVGPVPLERGQMQISDPRPPMPRGPMPSGGIPPRGLLGDAPNDPRGGTLLSVTGEVEPRGYMGPPHQGPPMHHGHDNRGPASHDMRGGPLAADPRMLIGEPRGPMIDQRGLPMDGRGGRESRGMETRPMETEVLEPRGMERRMETCAMETRGMDARGLEMRGPGPSSRGPMTGGIQGPGPINMGAGGPQGPRQVPNIAGVGNPGGTMQGAGIQGGGMQGAGMQGGGMQGAGMQGGGMQGAGMQAGMQGASMQGGMQGAGMQGASKQGGGQPSSFSPGQSQVTPQDQEKAALIMQVLQLTADQIAMLPPEQRQSILILKEQIQKSTGAS
Take B7: the binding result in experiment [2] is listed as “binds”.
